Read-outs that look alike come from different tables or passages of the source. These are yes or no findings as the source states them, for the method shown. Some results given as binding are weak or reduced against the parent protein; the word gives no strength. Sequences can lack the tags named with a protein.
Key:
[1] = molecular target: rat ROR1 extracellular domain-Fc fusion (rat) (UniProt D3ZZ97); assay: ELISA and SPR
[2] = molecular target: human serum albumin (human) (UniProt P02768); assay: direct ELISA on coated HSA
[3] = molecular target: rat ROR1 extracellular domain-Fc fusion (rat) (UniProt D3ZZ97); assay: ELISA on coated rat ROR1-Fc
[4] = molecular target: human serum albumin (human) (UniProt P02768); assay: direct ELISA on coated HSA; remark: listed apart in the source

By UniProt entry, the sequences of proteins in these tests, tags left out. Residues count along the entry.
UniProt P02768, residues 25-609: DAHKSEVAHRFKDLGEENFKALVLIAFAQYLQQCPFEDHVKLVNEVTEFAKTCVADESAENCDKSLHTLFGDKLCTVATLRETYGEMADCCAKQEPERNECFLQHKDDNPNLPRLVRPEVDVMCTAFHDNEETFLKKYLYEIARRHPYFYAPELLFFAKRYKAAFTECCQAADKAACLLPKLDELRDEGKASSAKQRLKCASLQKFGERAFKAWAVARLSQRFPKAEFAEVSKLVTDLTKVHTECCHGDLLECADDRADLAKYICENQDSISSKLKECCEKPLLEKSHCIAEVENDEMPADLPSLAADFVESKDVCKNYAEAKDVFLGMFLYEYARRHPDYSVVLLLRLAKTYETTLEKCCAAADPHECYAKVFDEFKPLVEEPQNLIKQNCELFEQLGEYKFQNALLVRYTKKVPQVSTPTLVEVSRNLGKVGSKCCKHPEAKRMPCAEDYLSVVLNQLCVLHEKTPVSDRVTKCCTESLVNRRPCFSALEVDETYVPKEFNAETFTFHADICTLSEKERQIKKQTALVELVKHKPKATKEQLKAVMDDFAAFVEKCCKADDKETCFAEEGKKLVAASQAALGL

B1: P3A1 VNAR (C-terminal His6 or His6Myc tag, not said which) (VNAR, not shown: small tags and cut ends)
VNAR: TRVDQTPRTATKETGESLTINCVLTDTSYGLYSTSWFRKNPGTTDWERMSIGGRYVESVNKGAKSFSLRIKDLTVADSATYYCKAREARHPWLRQWYDGAGTVLTVN
binding [1]: binds | binding [2]: no binding (tested: 10 ug/ml) | binding [3]: binds | binding [4]: no binding (tested: 1000 ng/ml)

— patent publication US20210317204A1
